Experimental data as given in US20200115460A1.
No constants are given. Whether binding was seen depends on the method and setting. Binding calls can cover weak binding; strength is not graded here.

Experiments:
Experiment in all cases: Cell ELISA, 10 nM antibody
[1] = biological target: hIGFIR[L1-L2]/hINSR (human)
[2] = biological target: hINSR[L1-L2]/hIGFIR (human)
hINSR[L1]/hIGFIR (human) = biological target: hINSR[L1]/hIGFIR (human)
hINSR[L2]/hIGFIR (human) = biological target: hINSR[L2]/hIGFIR (human)

Measured: binding

B1: IGF11-16 (antibody, mouse IgG1, kappa, V domains shown)
VH: QIQLQQPGAELVKPGASVKLSCKAPGYTFTSYWMHWVKQRPGQGLEWIGETNPSNSVTNYNEKFKSKATLTVDKSSSTAYMQLSSLTSEDSAVYYCTIGRGRGFAYWGQGTLVTVSA
VL: DIQMNQSPSSLSASLGDTITITCRASQNINFWLSWCQQKPGNIPKLLIYKASNLHTGVPSRFSGSGSGTDFTLTISSLQPEDIATYYCLQGQSYPYTFGGGTKLEIKR
binds: all assays above
